Experimental data published in ChEMBL document CHEMBL3616463, “Differential influence of 7 cations on 16 non-competitive NMDA receptor blockers” (Bioorg Med Chem Lett, 2015).

Target: Glutamate NMDA receptor
Type: cell membranes, Rattus norvegicus, Wistar, Brain, Membrane

An IC50 of 38 µM was found for `CNCCCC12CCC(c3ccccc31)c1ccccc12` [MAPROTILINE] in this work.
